Measurements reported in article PMC11990898, “Novel Isatin–Chalcone Hybrid Molecules: Design, Synthesis and Anti-Neuroinflammatory Activity Evaluation” (Molecules, 2025).

System: NO release from LPS-stimulated BV2 cells
Assay: NO release inhibition in LPS-stimulated BV2 cells (Griess method)
Type: cell-based, mouse
Settings: cell viability IC50/NO inhibition IC50
Method: BV2 cells stimulated by lipopolysaccharide (LPS) lead to an increase in NO release. Therefore, we used the inhibitory ability of the target compounds on NO as a preliminary method to evaluate their anti-neuroinflammatory properties. We evaluated the inhibitory ability of isatin–chalcone hybrid derivatives 4a–t on the release of NO from BV2 cells at 20 μM. The release amount of NO was detected by the Griess method, and the actual release amount of NO was calculated based on the experimental data.
BV2 cells were plated in 96-well microplates at 40,000 cells per well (100 μL/well) and incubated for 24 h. Then, 50 μL of LPS solution with a final concentration of 100 ng/mL and 50 μL of compounds (diluted with medium to a final concentration of 0.31–20 μM) were added, and each concentration had 3 parallel wells. The NO assay kit was used to carry out nitrite assays after 24 h. The 50 μL of culture medium was mixed with the GrisR1 (50 μL) and GrisR2 (50 μL) of the NO assay kit in another new 96-well plate. The absorbance was detected at 540 nm. The percentage of inhibition of NO was obtained from the following formula: [(Rlps − RB − RC)/(Rlps − RB)] × 100, where Rlps is the release amount of only the LPS-treated group, RB is the release amount of the normal control and RC is the release amount of the test compound and LPS-treated group. The IC50 values of test compounds were calculated by linear regression plots.

CCOC(=O)CN1C(=O)/C(=C/C(=O)/C=C/c2ccccc2)c2ccccc21 [Compound 4b, Ethyl 2-((E)-2-oxo-3-((E)-2-oxo-4-phenylbut-3-en-1-ylidene)indolin-1-yl)acetate]
Therapeutic Index (TI): 21.6

CCCCCc1ccc(C(=O)/C=C2/C(=O)N(CC(=O)OCC)c3ccccc32)cc1 [Compound 4g, Ethyl (E)-2-(2-oxo-3-(2-oxo-2-(4-pentylphenyl)ethylidene)indolin-1-yl)acetate]
Therapeutic Index (TI): 2.8

CCOC(=O)CN1C(=O)/C(=C/C(=O)c2cc(OC)c(OC)c(OC)c2)c2ccccc21 [Compound 4j, Ethyl (E)-2-(2-oxo-3-(2-oxo-2-(3,4,5-trimethoxyphenyl)ethylidene)indolin-1-yl)acetate]
Therapeutic Index (TI): 4.6

COC(=O)CN1C(=O)/C(=C/C(=O)c2cc(OC)c(OC)c(OC)c2)c2ccccc21 [Compound 5a, Methyl (E)-2-(2-oxo-3-(2-oxo-2-(3,4,5-trimethoxyphenyl)ethylidene)indolin-1-yl)acetate]
Therapeutic Index (TI): 7.2

CCCCCCCOC(=O)CN1C(=O)/C(=C/C(=O)c2cc(OC)c(OC)c(OC)c2)c2ccccc21 [Compound 5b, Heptyl (E)-2-(2-oxo-3-(2-oxo-2-(3,4,5-trimethoxyphenyl)ethylidene)indolin-1-yl)acetate]
Therapeutic Index (TI): 2.9

CCCCCCCCCCCOC(=O)CN1C(=O)/C(=C/C(=O)c2cc(OC)c(OC)c(OC)c2)c2ccccc21 [Compound 5c, Undecyl (E)-2-(2-oxo-3-(2-oxo-2-(3,4,5-trimethoxyphenyl)ethylidene)indolin-1-yl)acetate]
Therapeutic Index (TI): 3.1

COc1cc(C(=O)/C=C2/C(=O)N(CC(=O)OCCc3ccccc3)c3ccccc32)cc(OC)c1OC [Compound 5f, Phenethyl (E)-2-(2-oxo-3-(2-oxo-2-(3,4,5-trimethoxyphenyl)ethylidene)indolin-1-yl)acetate]
Therapeutic Index (TI): 4.0

COc1cc(C(=O)/C=C2/C(=O)N(CC(=O)OCCCc3ccccc3)c3ccccc32)cc(OC)c1OC [Compound 5g, 3-Phenylpropyl (E)-2-(2-oxo-3-(2-oxo-2-(3,4,5-trimethoxyphenyl)ethylidene)indolin-1-yl)acetate]
Therapeutic Index (TI): 8.1

CCOC(=O)CN1C(=O)/C(=C/C(=O)c2cc(OC)c(OC)c(OC)c2)c2cc(C)ccc21 [Compound 9e, Ethyl (E)-2-(5-methyl-2-oxo-3-(2-oxo-2-(3,4,5-trimethoxyphenyl)ethylidene)indolin-1-yl)acetate]
Therapeutic Index (TI): 7.8

CCOC(=O)CN1C(=O)/C(=C/C(=O)c2cc(OC)c(OC)c(OC)c2)c2cc(OC)ccc21 [Compound 9f, Ethyl (E)-2-(5-methoxy-2-oxo-3-(2-oxo-2-(3,4,5-trimethoxyphenyl)ethylidene)indolin-1-yl)acetate]
Therapeutic Index (TI): 7.5
